This passage reports binding results from publication PMC7959726.

These are yes or no findings as the source states them, for the method shown. Some results given as binding are weak or reduced against the parent protein; the word gives no strength. Sequences can lack the tags named with a protein.

Experiment [1] concerns the target T1, C-terminal domain of CYP38 (239-437) with the quadruple mutation, two-hybrid fusion (Arabidopsis) (UniProt Q9SSA5).
T1 sequence: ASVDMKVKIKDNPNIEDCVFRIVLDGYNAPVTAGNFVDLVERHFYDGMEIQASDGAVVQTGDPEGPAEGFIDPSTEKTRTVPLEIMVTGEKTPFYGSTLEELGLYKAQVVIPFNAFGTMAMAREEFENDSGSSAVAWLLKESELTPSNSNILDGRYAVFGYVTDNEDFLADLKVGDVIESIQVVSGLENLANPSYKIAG
The experiment is described as follows: two-hybrid; yeast strain AH109; CYP38 forms in pGBKT7 as baits, CP47 E-loop in pGADT7 as prey; growth of dilutions (1/10, 1/100, 1/1,000) on -LTAH medium.

The target of experiment [2] is T2, C-terminal domain of CYP38 (239-437), two-hybrid fusion (Arabidopsis) (UniProt Q9SSA5).
T2 sequence: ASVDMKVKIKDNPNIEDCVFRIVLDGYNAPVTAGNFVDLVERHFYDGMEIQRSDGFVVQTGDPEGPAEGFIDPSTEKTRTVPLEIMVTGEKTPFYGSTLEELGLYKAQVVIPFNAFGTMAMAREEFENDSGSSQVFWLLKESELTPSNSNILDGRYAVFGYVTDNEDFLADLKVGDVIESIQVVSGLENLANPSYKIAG
The description is as above.

B1: N-terminal domain of CYP38 (92-215), two-hybrid fusion (domain or fragment, UniProt Q9SSA5 92-215)
chain: SVLISGPPIKDPEALLRYALPIDNKAIREVQKPLEDITDSLKIAGVKALDSVERNVRQASRTLQQGKSIIVAGFAESKKDHGNEMIEKLEAGMQDMLKIVEDRKRDAVAPKQKEILKYVGGIEE
For B1, the binding entry in experiment [1] and in experiment [2] was “binds” in each case.
